Data taken from article PMC3694890.
These are yes or no findings as the source states them, for the method shown. Some results given as binding are weak or reduced against the parent protein; the word gives no strength. For some of these results: Sequences can lack the tags named with a protein.

Chains of the proteins cited; added tags and fusions are not shown. Lines headed by an entry give the natural chain unless they say otherwise; changes in a name come on top.
UniProt P35568: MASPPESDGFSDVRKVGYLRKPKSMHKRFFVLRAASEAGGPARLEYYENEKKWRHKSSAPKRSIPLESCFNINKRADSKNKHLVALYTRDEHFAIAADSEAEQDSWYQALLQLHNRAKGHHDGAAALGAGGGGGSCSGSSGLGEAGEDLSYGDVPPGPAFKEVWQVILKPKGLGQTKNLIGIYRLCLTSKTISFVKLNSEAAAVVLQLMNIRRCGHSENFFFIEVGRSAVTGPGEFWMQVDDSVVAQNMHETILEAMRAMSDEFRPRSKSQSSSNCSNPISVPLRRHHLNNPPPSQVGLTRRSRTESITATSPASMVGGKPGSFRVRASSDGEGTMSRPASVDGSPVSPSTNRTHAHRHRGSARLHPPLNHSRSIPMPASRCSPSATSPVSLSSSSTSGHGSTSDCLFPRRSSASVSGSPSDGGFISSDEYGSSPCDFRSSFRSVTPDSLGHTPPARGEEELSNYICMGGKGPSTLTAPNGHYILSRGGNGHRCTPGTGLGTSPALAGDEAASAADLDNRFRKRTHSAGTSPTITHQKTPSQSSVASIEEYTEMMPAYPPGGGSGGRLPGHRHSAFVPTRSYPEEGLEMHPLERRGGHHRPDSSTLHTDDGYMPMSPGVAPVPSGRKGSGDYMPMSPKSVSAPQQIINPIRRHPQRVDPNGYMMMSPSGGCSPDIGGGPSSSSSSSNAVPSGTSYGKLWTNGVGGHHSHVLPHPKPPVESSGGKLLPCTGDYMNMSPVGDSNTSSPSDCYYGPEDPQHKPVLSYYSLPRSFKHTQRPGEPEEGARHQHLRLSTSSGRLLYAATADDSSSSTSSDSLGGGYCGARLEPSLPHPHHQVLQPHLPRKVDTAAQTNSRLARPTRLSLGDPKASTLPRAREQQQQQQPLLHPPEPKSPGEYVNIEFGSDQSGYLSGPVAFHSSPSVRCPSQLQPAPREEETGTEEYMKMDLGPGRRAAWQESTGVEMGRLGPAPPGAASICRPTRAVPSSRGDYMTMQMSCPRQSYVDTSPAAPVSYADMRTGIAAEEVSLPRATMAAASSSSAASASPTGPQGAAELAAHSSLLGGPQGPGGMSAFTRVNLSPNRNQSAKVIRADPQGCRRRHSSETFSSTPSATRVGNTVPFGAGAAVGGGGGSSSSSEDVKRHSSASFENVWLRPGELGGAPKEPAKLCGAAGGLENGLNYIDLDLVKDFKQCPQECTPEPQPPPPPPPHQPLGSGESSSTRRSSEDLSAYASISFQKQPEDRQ
UniProt P35590: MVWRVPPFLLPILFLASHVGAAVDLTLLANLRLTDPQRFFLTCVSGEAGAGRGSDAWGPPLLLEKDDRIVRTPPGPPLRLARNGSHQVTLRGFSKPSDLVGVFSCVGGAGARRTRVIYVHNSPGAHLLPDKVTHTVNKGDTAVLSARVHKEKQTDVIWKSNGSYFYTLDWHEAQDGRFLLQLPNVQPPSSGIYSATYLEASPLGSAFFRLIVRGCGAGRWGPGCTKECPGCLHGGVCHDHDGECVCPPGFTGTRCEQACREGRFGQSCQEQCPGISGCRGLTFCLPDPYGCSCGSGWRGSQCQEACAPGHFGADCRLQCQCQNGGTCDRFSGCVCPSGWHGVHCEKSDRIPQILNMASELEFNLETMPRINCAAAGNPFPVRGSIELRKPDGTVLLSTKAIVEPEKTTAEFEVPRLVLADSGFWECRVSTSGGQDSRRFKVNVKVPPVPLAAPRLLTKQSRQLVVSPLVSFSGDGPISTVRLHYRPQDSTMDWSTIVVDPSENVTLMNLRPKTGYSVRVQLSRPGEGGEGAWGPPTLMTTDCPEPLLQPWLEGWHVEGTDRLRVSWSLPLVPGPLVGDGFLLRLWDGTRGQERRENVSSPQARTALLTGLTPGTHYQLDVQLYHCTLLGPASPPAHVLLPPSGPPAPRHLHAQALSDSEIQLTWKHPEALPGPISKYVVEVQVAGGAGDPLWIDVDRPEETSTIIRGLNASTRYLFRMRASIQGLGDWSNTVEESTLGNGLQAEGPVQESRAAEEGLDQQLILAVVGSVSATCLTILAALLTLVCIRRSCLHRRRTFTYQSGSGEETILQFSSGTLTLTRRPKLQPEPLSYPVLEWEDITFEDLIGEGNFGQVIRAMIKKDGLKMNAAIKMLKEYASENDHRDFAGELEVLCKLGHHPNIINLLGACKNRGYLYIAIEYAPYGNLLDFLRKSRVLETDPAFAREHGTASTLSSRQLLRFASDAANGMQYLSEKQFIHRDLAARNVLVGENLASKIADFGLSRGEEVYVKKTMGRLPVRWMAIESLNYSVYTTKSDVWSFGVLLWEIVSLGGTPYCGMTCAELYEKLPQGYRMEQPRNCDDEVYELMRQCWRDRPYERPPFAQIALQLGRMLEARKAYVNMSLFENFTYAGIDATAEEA
UniProt O14654: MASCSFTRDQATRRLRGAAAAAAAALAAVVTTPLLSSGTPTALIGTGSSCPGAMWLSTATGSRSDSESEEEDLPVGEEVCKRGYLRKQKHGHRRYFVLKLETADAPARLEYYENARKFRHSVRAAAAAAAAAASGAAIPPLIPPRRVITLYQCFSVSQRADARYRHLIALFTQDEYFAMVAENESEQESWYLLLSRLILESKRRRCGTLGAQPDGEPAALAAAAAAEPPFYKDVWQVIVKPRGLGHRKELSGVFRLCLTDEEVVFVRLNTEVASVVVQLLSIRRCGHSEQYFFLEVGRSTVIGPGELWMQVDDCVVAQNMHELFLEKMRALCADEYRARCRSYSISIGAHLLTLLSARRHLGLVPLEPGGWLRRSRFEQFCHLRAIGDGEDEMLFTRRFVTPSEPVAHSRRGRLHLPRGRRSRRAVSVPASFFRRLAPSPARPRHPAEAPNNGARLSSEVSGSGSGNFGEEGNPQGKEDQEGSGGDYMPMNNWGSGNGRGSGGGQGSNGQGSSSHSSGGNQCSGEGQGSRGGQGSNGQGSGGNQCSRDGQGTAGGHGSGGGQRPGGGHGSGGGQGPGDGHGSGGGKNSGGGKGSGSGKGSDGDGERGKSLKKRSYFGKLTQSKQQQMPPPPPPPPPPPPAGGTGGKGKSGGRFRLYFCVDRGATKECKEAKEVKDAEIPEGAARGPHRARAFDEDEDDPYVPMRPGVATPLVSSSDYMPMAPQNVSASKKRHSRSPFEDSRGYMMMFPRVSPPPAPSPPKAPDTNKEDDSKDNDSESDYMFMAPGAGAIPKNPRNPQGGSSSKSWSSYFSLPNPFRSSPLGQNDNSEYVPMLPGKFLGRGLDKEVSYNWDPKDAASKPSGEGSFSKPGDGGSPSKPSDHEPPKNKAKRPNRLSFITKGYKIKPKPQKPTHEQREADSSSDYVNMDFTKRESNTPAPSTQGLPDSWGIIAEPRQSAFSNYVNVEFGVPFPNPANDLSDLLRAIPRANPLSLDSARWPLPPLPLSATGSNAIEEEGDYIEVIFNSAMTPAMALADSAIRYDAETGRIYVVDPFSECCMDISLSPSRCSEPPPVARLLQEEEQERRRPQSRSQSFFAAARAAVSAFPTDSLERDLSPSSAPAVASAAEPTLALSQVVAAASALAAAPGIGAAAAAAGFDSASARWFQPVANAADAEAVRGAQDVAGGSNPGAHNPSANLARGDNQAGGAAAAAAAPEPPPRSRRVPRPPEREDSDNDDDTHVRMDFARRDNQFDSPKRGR
UniProt P62993: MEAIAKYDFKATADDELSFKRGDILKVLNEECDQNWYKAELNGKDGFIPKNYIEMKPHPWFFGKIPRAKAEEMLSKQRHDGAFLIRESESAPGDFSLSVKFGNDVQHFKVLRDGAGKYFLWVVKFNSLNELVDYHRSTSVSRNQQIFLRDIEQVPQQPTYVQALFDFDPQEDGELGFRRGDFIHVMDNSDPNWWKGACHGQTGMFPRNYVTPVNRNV

Key:
Test in all cases: peptide or protein array; total protein of cell lysate (1 mg in 1 mL) of MCF10A, MCF7, T47D or MDA-MB231 over a chip with 160 pY peptide probes (10 replicates, alanine controls), overnight at 4°C; bound GRB2 detected with rabbit anti-GRB2 and Alexa 647 secondary antibody; only the target purified
[1] = target: T1, FRS2_196 tyrosine phosphopeptide probe (human)
T1 sequence (peptide, phosphotyrosine at the N-terminus (Y196)): YVNTTG

[2] = target: T2, FLT3_768 tyrosine phosphopeptide probe (human)
T2 sequence (peptide, phosphotyrosine at the N-terminus (Y768)): YENQKR

[3] = target: T3, IRS1_896 tyrosine phosphopeptide probe (human) (UniProt P35568)
T3 sequence (peptide, phosphotyrosine at the N-terminus (Y896)): YVNIEF

[4] = target: T4, TNFL6_258 tyrosine phosphopeptide probe (human)
T4 sequence (peptide, phosphotyrosine at the N-terminus (Y258)): YVNVSE

[5] = target: T5, FLT1_1213 tyrosine phosphopeptide probe (human)
T5 sequence (peptide, phosphotyrosine at the N-terminus (Y1213)): YVNAFK

[6] = target: T6, FAK1_925 tyrosine phosphopeptide probe (human)
T6 sequence (peptide, phosphotyrosine at the N-terminus (Y925)): YENVTG

[7] = target: T7, SHC1_427 tyrosine phosphopeptide probe (human)
T7 sequence (peptide, phosphotyrosine at the N-terminus (Y427)): YVNIQN

[8] = target: T8, TIE1_1117 tyrosine phosphopeptide probe (UniProt P35590)
T8 sequence (peptide, phosphotyrosine at the N-terminus (Y1117)): YVNMSL

[9] = target: T9, LAX1_268 tyrosine phosphopeptide probe (human)
T9 sequence (peptide, phosphotyrosine at the N-terminus (Y268)): YVNMTG

[10] = target: T10, PTPRA_798 tyrosine phosphopeptide probe (human)
T10 sequence (peptide, phosphotyrosine at the N-terminus (Y798)): YANFK

[11] = target: T11, GSTP1_199 tyrosine phosphopeptide probe (human)
T11 sequence (peptide, phosphotyrosine at the N-terminus (Y199)): YVNLPI

[12] = target: T12, LAX1_294 tyrosine phosphopeptide probe (human)
T12 sequence (peptide, phosphotyrosine at the N-terminus (Y294)): YENVPA

[13] = target: T13, IRS4_921 tyrosine phosphopeptide probe (UniProt O14654)
T13 sequence (peptide, phosphotyrosine at the N-terminus (Y921)): YVNMDF

[14] = target: T14, NTAL_136 tyrosine phosphopeptide probe (human)
T14 sequence (peptide, phosphotyrosine at the N-terminus (Y136)): YQNFSK

[15] = target: T15, EPOR_489 tyrosine phosphopeptide probe (human)
T15 sequence (peptide, phosphotyrosine at the N-terminus (Y489)): YENSLI

[16] = target: T16, LAT_220 tyrosine phosphopeptide probe (human)
T16 sequence (peptide, phosphotyrosine at the N-terminus (Y220)): YVNVSQ

binding [1]: binds
binding [2]: binds
binding [3]: binds
binding [4]: binds
binding [5]: binds
binding [6]: binds
binding [7]: binds
binding [8]: binds
binding [9]: binds
binding [10]: binds
binding [11]: binds
binding [12]: binds
binding [13]: binds
binding [14]: binds
binding [15]: binds
binding [16]: binds
Substance: GRB2 (endogenous, from cell lysates) (from UniProt P62993 1-217)
